Data as given in PubChem BioAssay AID493246 (Drosophila RNAi Screening Center, 2011)

Assay: 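Genes fly cells need to grow and stay alive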 (primary screen)
Cell system: Drosophila Kc and S2R+ cells
Reagents: long dsRNA against Drosophila genes
Read-out: 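Cell number per well after knock-down, printed as raw plate values; calls were based on per-plate z-scores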
Scale: Kc cell number and S2R+ cell number: higher = more cells remaining
Call rule: 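Counted as a hit if cell number falls by a z-score of at least 3 within its plate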
The deposit covers about 21,000 reagents; shown is a random part of those with a known target gene and a result. Over the whole deposit, 429 (2%) are marked active. 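Values are raw and not normalised between plates; calls rest on per-plate z-scores that were not deposited.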 The numbers tell different reagents against one gene apart. Not stated in the record: the amount of reagent, the time to read-out.

| gene | dsRNA no. | Kc cell number, rep 1 | Kc cell number, rep 2 | S2R+ cell number, rep 1 | S2R+ cell number, rep 2 | call |
| --- | --- | --- | --- | --- | --- | --- |
| Ugt35E2 (UDP-glycosyltransferase family 35 member E2) | 1 | 1.59e6 | 1.49e6 | 1.26e6 | 1.36e6 | inactive |
| cpa (capping protein alpha) | 1 | 1.46e6 | 1.52e6 | 1.14e6 | 1.23e6 | inactive |
| Cnx14D (Calnexin 14D) | 1 | 1.60e6 | 1.66e6 | 1.12e6 | 1.27e6 | inactive |
| CG10841 | 1 | 1.35e6 | 1.73e6 | 1.50e6 | 1.66e6 | inactive |
| CG1113 | 1 | 1.62e6 | 1.68e6 | 1.30e6 | 1.49e6 | inactive |
| boi | 1 | 1.51e6 | 1.46e6 | 1.03e6 | 1.13e6 | inactive |
| boi | 2 | 1.52e6 | 1.48e6 | 9.63e5 | 1.14e6 | inactive |
| CG10710 | 1 | 1.32e6 | 1.34e6 | 1.37e6 | 1.45e6 | inactive |
| yellow-f2 | 1 | 1.92e6 | 1.92e6 | 1.37e6 | 1.45e6 | inactive |
| CG30043 | 1 | 1.44e6 | 1.52e6 | 1.20e6 | 1.43e6 | inactive |
| Rdl (Resistant to dieldrin) | 1 | 1.37e6 | 1.50e6 | 1.26e6 | 1.16e6 | inactive |
| RYa-R (RYamide receptor) | 1 | 5.35e5 | – | 8.03e5 | – | inactive |
| CG14070 | 1 | 1.54e6 | 1.58e6 | 1.19e6 | 1.23e6 | inactive |
| Mst84B (Male-specific transcript 84B) | 1 | 1.42e6 | 1.61e6 | 1.24e6 | 1.36e6 | inactive |
| Cht9 (Chitinase 9) | 1 | 1.30e6 | 1.38e6 | 1.08e6 | 1.19e6 | inactive |
| CarT (Carcinine transporter) | 1 | 9.63e5 | 1.01e6 | 8.52e5 | 6.78e5 | inactive |
| Dnaaf6 (Dynein axonemal assembly factor 6) | 1 | 1.39e6 | 1.39e6 | 1.31e6 | 1.47e6 | inactive |
| kipf (kipferl) | 1 | 1.32e6 | 1.41e6 | 9.98e5 | 1.13e6 | inactive |
| CG4972 | 1 | 1.61e6 | 1.72e6 | 1.27e6 | 1.42e6 | inactive |
| Mlh1 | 1 | 1.35e6 | 1.43e6 | 1.11e6 | 1.19e6 | inactive |
| bves | 1 | 1.49e6 | 1.50e6 | 1.11e6 | 1.17e6 | inactive |
| bves | 2 | 1.56e6 | 1.55e6 | 1.09e6 | 1.29e6 | inactive |
| bves | 3 | 1.52e6 | 1.55e6 | 1.12e6 | 1.31e6 | inactive |
| CG12231 | 1 | 1.52e6 | 1.55e6 | 1.10e6 | 1.23e6 | inactive |

Ordered by “Kc cell number, rep 1” (lowest first): some entries from above.
| gene | dsRNA no. | Kc cell number, rep 1 | Kc cell number, rep 2 | S2R+ cell number, rep 1 | S2R+ cell number, rep 2 | call |
| --- | --- | --- | --- | --- | --- | --- |
| RYa-R (RYamide receptor) | 1 | 5.35e5 | – | 8.03e5 | – | inactive |
| Rdl (Resistant to dieldrin) | 1 | 1.37e6 | 1.50e6 | 1.26e6 | 1.16e6 | inactive |
| CG30043 | 1 | 1.44e6 | 1.52e6 | 1.20e6 | 1.43e6 | inactive |
